This note sets out measurements from PMC4464284.

Sequences of proteins named here, by UniProt entry; tags and fusion partners are left off.
UniProt Q04207: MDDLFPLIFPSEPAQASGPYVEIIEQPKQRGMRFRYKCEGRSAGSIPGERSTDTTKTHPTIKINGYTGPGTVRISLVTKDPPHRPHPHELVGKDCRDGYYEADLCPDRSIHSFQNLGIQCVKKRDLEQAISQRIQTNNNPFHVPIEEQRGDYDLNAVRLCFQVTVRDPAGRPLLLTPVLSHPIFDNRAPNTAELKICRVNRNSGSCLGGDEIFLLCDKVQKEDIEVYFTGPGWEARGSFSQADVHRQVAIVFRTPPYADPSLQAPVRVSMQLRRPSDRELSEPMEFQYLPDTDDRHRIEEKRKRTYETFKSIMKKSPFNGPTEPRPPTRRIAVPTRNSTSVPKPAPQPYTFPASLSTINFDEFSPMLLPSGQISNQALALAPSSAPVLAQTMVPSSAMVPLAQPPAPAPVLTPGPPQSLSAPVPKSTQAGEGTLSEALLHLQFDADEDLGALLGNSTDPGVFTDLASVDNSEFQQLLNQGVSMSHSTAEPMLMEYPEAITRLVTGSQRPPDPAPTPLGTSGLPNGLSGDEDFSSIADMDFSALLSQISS

The target in this assay is T1, vitamin D receptor (mouse (endogenous in placenta)) (UniProt P48281).
T1 sequence: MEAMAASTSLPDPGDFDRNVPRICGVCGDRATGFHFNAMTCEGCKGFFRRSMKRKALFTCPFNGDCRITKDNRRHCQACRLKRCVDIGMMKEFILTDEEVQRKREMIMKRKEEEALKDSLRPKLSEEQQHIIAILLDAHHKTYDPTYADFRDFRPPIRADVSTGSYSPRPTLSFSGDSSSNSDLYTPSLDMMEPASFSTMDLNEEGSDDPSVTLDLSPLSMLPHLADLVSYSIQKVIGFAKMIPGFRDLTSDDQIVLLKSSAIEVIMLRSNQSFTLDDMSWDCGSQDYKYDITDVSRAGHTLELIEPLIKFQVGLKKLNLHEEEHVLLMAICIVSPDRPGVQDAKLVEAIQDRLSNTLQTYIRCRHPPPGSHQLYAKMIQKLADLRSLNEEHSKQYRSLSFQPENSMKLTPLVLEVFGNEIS
Briefly: co-IP; placental cytosol proteins (300 μg tissue lysate; 0.6% Nonidet P-40, 0.5% sodium deoxycholate, 150 mM NaCl, 50 mM Tris-HCl pH 7.5) precleared with protein A/G-agarose, incubated with agarose-conjugated VDR antibody at 4 °C overnight, washed with cold RIPA buffer, immunoblot for NF-κB p65; pregnant mice treated with saline, VitD3, LPS or VitD3 + LPS, placentas collected 2 h after LPS.

No constants are given. Whether binding was seen depends on the method and setting. Binding seen in cells or lysates may run through a third protein. Some binding calls cover weakened binding; strength is not graded here.

Turning to “nuclear factor kappa B p65 subunit (from UniProt Q04207 1-549)”, the binding result is “binds”.
